Source: patent US20250235548A1 (Zymeworks BC Inc., priority 2022, published 2025)

Test: general procedure: solution-phase peptide synthesis
Settings: for conjugation yield: conjugation step

(9H-fluoren-9-yl)methyl (S)-(12-benzyl-1-(4-nitrophenoxy)-1,8,11,14,17-pentaoxo-2,5-dioxa-7,10,13,16-tetraazaoctadecan-18-yl)carbamate
step yield (late stage modification step, from Compound 4.6): 53%

2-((2-(((S)-1-((2-(((S)-4-ethyl-8-fluoro-4-hydroxy-3,14-dioxo-3,4,12,14-tetrahydro-1H-pyrano[3′,4′:6,7]indolizino[1,2-b]quinolin-9-yl)amino)-2-oxoethyl)amino)-1-oxo-3-phenylpropan-2-yl)amino)-2-oxoethyl)amino)-2-oxoethan-1-aminium
step yield (coupling step): 88%

6-(2,5-dioxo-2,5-dihydro-1H-pyrrol-1-yl)-N-(2-((2-(((S)-1-((2-(((S)-4-ethyl-8-fluoro-4-hydroxy-3,14-dioxo-3,4,12,14-tetrahydro-1H-pyrano[3′,4′:6,7]indolizino[1,2-b]quinolin-9-yl)amino)-2-oxoethyl)amino)-1-oxo-3-phenylpropan-2-yl)amino)-2-oxoethyl)amino)-2-oxoethyl)hexanamide
step yield (late stage modification step): 40%

tert-butyl (2-((2-(((S)-1-((2-(((S)-4-ethyl-8-fluoro-4-hydroxy-3,14-dioxo-3,4,12,14-tetrahydro-1H-pyrano[3′,4′:6,7]indolizino[1,2-b]quinolin-9-yl)amino)-2-oxoethyl)amino)-1-oxo-3-phenylpropan-2-yl)amino)-2-oxoethyl)amino)-2-oxoethyl)carbamate
conjugation yield: 17%

tert-butyl (((S)-9-(2-((S)-2-(2-(2-aminoacetamido)acetamido)-3-phenylpropanamido)acetamido)-4-ethyl-8-fluoro-4-hydroxy-3,14-dioxo-3,4,12,14-tetrahydro-1H-pyrano[3′,4′:6,7]indolizino[1,2-b]quinolin-11-yl)methyl)carbamate
step yield (coupling step, TFA salt): 64%

tert-butyl (2-((2-(((S)-1-((2-(((S)-4-ethyl-8-fluoro-4-hydroxy-11-(morpholinomethyl)-3,14-dioxo-3,4,12,14-tetrahydro-1H-pyrano[3′,4′:6,7]indolizino[1,2-b]quinolin-9-yl)amino)-2-oxoethyl)amino)-1-oxo-3-phenylpropan-2-yl)amino)-2-oxoethyl)amino)-2-oxoethyl)carbamate
conjugation yield: 22%

(9H-fluoren-9-yl)methyl (S)-(9-benzyl-1-(3-fluoroazetidin-3-yl)-5,8,11,14-tetraoxo-2-oxa-4,7,10,13-tetraazapentadecan-15-yl)carbamate
step yield (late stage modification step): 54%

(9H-fluoren-9-yl)methyl ((7S)-1-((3-azabicyclo[3.1.1]heptan-6-yl)oxy)-7-benzyl-3,6,9,12-tetraoxo-2,5,8,11-tetraazatridecan-13-yl)carbamate
step yield (late stage modification step): 46%

(S)-2-(1-(2,5-dioxo-2,5-dihydro-1H-pyrrol-1-yl)-12,15-dioxo-3,6,9-trioxa-13,16-diazaoctadecan-18-amido)-N-(1-((S)-4-ethyl-8-fluoro-4-hydroxy-9-methyl-3,14-dioxo-3,4,12,14-tetrahydro-1H-pyrano[3′,4′:6,7]indolizino[1,2-b]quinolin-11-yl)-3,10-dioxo-7-oxa-2,4,9-triazaundecan-11-yl)-3-phenylpropana
step yield (coupling step): 26% yield

(S)-2-(2-(2-aminoacetamido)acetamido)-N-(2-((((1-(((S)-4-ethyl-8-fluoro-4-hydroxy-9-methyl-3,14-dioxo-3,4,12,14-tetrahydro-1H-pyrano[3′,4′:6,7]indolizino[1,2-b]quinolin-11-yl)methyl)-3-fluoroazetidin-3-yl)methoxy)methyl)amino)-2-oxoethyl)-3-phenylpropanamide
conjugation yield (TFA salt): 28%

(2S)-2-(2-(2-aminoacetamido)acetamido)-N-(2-((((3-(((S)-4-ethyl-8-fluoro-4-hydroxy-9-methyl-3,14-dioxo-3,4,12,14-tetrahydro-1H-pyrano[3′,4′:6,7]indolizino[1,2-b]quinolin-11-yl)methyl)-3-azabicyclo[3.1.1]heptan-6-yl)oxy)methyl)amino)-2-oxoethyl)-3-phenylpropanamide
conjugation yield (TFA salt): 29%

(S)-16-amino-10-benzyl-6,9,12,15-tetraoxo-3-oxa-5,8,11,14-tetraazahexadecyl (((S)-4-ethyl-8-fluoro-4-hydroxy-9-methyl-3,14-dioxo-3,4,12,14-tetrahydro-1H-pyrano[3′,4′:6,7]indolizino[1,2-b]quinolin-11-yl)methyl)carbamate
conjugation yield (TFA salt): 39%
